Measured values published in article PMC8464071.
These are yes or no findings as the source states them, for the method shown. Binding seen in cells or lysates may run through a third protein. Some binding calls cover weakened binding; strength is not graded here.

The chains behind the UniProt entries cited, without tags or fusion partners.
UniProt P12004: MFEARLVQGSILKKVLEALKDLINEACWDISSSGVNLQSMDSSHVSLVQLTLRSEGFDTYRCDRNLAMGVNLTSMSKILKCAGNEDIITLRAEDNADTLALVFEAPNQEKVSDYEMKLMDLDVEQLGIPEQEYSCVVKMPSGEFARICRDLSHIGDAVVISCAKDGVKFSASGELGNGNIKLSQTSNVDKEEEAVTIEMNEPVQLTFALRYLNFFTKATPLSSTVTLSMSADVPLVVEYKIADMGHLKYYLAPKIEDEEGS
UniProt P15927: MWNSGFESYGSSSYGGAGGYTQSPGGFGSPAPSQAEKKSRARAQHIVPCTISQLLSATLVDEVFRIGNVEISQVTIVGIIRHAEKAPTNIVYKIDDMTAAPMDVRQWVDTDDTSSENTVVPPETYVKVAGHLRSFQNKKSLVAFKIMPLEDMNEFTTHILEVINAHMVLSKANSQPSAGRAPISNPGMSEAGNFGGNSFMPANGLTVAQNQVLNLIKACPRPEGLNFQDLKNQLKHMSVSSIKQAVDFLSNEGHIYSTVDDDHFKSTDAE

target: XAB2 (human (endogenous in U2OS)) (UniProt Q9HCS7); assay: co-IP; Endogenous XAB2 precipitated from U2OS lysates (cells treated with DMSO or 1 uM CPT for 1 h) with rabbit anti-XAB2 antibody on Dynabeads Protein G, rabbit IgG as control; lysis buffer 20 mM Tris-HCl pH 7.8, 150 mM NaCl, 1 mM EDTA, 0.5% NP-40, with or without 0.2 mg/ml RNase A; 4 h at 4°C; washes with 500 mM NaCl; immunoblot of Ku70, PCNA, RPA32, XAB2

binding	Substance
no binding	PCNA (from UniProt P12004 1-261)
binds	Ku (from UniProt P12956 1-609; P13010 1-732) (complex)
no binding	RPA32 (from UniProt P15927 1-270)
